Results are given in words; binding and its absence hold for the method and conditions named.
Biological target: IM30_H2-3a (amino acids 22-145), WT fragment of Synechocystis IM30 (Synechocystis sp. PCC 6803) (UniProt Q55707)
Assay: SEC-MALS; Superdex 200 Increase 10/300 GL, 25 mM HEPES pH 7.5, 125 mM NaCl, 5% glycerol (w/w), RT; both purified

binding: no binding
B1: IM30_H2-3a (amino acids 22-145), WT fragment of Synechocystis IM30 (domain or fragment, UniProt Q55707 22-145)
chain: AEDPEKVLEQAVIDMQEDLVQLRQAVARTIAEEKRTEQRLNQDTQEAKKWEDRAKLALTNGEENLAREALARKKSLTDTAAAYQTQLAQQRTMSENLRRNLAALEAKISEAKTKKNMLQARAKA

Reference: PMC7577978, “IM30 IDPs form a membrane-protective carpet upon super-complex disassembly” (Communications Biology, 2020)
